Experimental data published in PubChem BioAssay AID2685 (National Center for Advancing Translational Sciences (NCATS), 2010).
The other results are listed elsewhere or left out. Shown are side measurements of this screen, not its main read-out; they come without a call. The list favours compounds with an active or inconclusive main result. Words in brackets tell the shape of the fitted curve; partial curves, single points and poor fits give uncertain potencies.

Assay: qHTS Assay for Lipid Storage Modulators in Drosophila S3 Cells;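 as to cell number change: cells counted by Cell Tracker Red CMTPX staining in the red channel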
Conditions: BODIPY lipid droplet fluorescence, 18-24 h; for cell number change: measured here: cell count max response, cells fed with added oleic acid
Outline: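 Drosophila S3 cells loaded with oleic acid (400 uM, as added) and compounds at several concentrations; lipid droplets imaged by 488-nm laser-scanning cytometry, 500–530 nm intensity and object ratio to cell channel. Percent activity normalized to 20 uM Triacsin C.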

[1] = measured here: cell number channel AC50, cells fed with added oleic acid
[2] = measured here: lipid fluorescence (Fed channel) AC50, cells fed with added oleic acid

| Compound | cell number change [%] | AC50 [1] | AC50 [2] |
| --- | --- | --- | --- |
| Nc1ncnc2nc(Sc3ccc(Cl)cc3)[nH]c12 | -3.3 | – | – |
| COCc1cc(=O)[nH]c(SCCS(=O)(=O)c2ccc(C)cc2)n1 | 13.6 | 4.11 µM [falling, single point] | 6.51 µM [falling, single point] |
| Nc1cc(S(=O)(=O)Nc2ccc(Cl)cc2)ccc1N1CCOCC1 | -32.4 | 3.26 µM [falling, partial curve] | 29.1 µM [falling, single point] |
| COC(=O)c1ccc(NS(=O)(=O)c2cc3c4c(c2)CCN4C(=O)CC3)cc1 | 9.54 | – | 0.651 µM [rising, partial curve] |
| CN(C)C=NC(=O)c1cc(C(=O)c2ccc(Cl)cc2Cl)c[nH]1 | 0.615 | – | – |
| Oc1ccccc1-c1nc(N2CCCC2)c2ccccc2n1 | – | 1.46 µM [rising, partial curve] | 1.03 µM [rising, full curve] |
| O=C(/C=C/c1ccc(N2CCCCC2)c([N+](=O)[O-])c1)c1ccc(O)cc1 | -31.1 | 4.11 µM [falling, partial curve, poor fit] | 18.4 µM [falling, single point] |
| NC(=O)NOCc1cccc(Cl)c1 | 37.7 | 1.46 µM [rising, partial curve] | 29.1 µM [rising, single point] |
| Cn1c(O)c(N=NC(=O)C2COc3ccccc3O2)c2ccccc21 (stereo not drawn) | 6.78 | – | 29.1 µM [rising, single point] |
| Cc1ccccc1C(=O)Nc1nnc(S(=O)(=O)N(C)Cc2ccco2)s1 | -36.9 | 32.6 µM [falling, single point] | 0.82 µM [falling, full curve, poor fit] |
| O=C(O)c1ccc2cccnc2c1O | 7.13 | – | – |
| NC(=O)c1ccc(NC(=O)COC(=O)c2c3c(nc4ccccc24)/C(=C\c2cccs2)CCC3)cc1 | -73.8 | 2.06 µM [falling, full curve] | 1.3 µM [falling, full curve] |
| O=C(NC1CCCC1)c1cc(-c2ccc(Cl)cc2)on1 | 26.5 | – | 6.51 µM [rising, single point] |
| COc1ccc(CC(C)N2CCN(Cc3ccccc3)CC2)c(OC)c1 (stereo not drawn) | -15.2 | 0.326 µM [falling, partial curve] | 0.731 µM [falling, full curve] |
| CCn1cnc2c(Nc3cccc(Cl)c3)nc(C#N)nc21 | -24.9 | – | – |
| COc1ccc(OC(=O)Cc2cccc3ccccc23)cc1 | -7.69 | – | 16.4 µM [rising, partial curve] |
| O=C(N/N=C/c1ccc([N+](=O)[O-])o1)C1CCCC1 | -26.1 | – | 29.1 µM [falling, single point] |
| COC(=O)C(C#N)C(c1cccnc1)c1c(C)[nH][nH]c1=O (stereo not drawn) | 6.42 | – | 3.66 µM [falling, single point] |
| COC(=O)c1c(N=CN(C)C)c(C#N)c2n1CCCC2 | 0.834 | – | – |
| O=C(NN1C(=O)/C(=C/C=C/c2ccco2)SC1=S)c1ccccc1O | -7.87 | – | 29.1 µM [falling, single point] |

Arranged by formula weight (rising): part of the list above

| Compound | cell number change [%] | AC50 [1] | AC50 [2] |
| --- | --- | --- | --- |
| CN(C)C=NC(=O)c1cc(C(=O)c2ccc(Cl)cc2Cl)c[nH]1 | 0.615 | – | – |
| COCc1cc(=O)[nH]c(SCCS(=O)(=O)c2ccc(C)cc2)n1 | 13.6 | 4.11 µM [falling, single point] | 6.51 µM [falling, single point] |
| O=C(NN1C(=O)/C(=C/C=C/c2ccco2)SC1=S)c1ccccc1O | -7.87 | – | 29.1 µM [falling, single point] |
| NC(=O)c1ccc(NC(=O)COC(=O)c2c3c(nc4ccccc24)/C(=C\c2cccs2)CCC3)cc1 | -73.8 | 2.06 µM [falling, full curve] | 1.3 µM [falling, full curve] |

More entries follow.

| Compound | cell number change [%] | AC50 [1] | AC50 [2] |
| --- | --- | --- | --- |
| O=C(CSc1nc(O)c(Cc2ccccc2)c(=O)[nH]1)Nc1ccccc1 | -30.8 | 5.17 µM [falling, full curve, poor fit] | 0.82 µM [falling, full curve] |
| O=C(CSc1nnc(-c2ccc(Br)cc2)o1)Nc1cccc(C(=O)O)c1 | 5.41 | – | 6.51 µM [falling, single point] |
| O=C(c1cccc(S(=O)(=O)N2CCOCC2)c1)N1CCCc2ccccc21 | – | 0.206 µM [falling, full curve, poor fit] | 0.146 µM [falling, full curve, poor fit] |
| COCCn1c(C)cc(C(=O)CN2C(=O)NC3(CCCCCC3)C2=O)c1C | 0.721 | – | 6.51 µM [rising, single point] |
| CCN1CCN(C(=O)c2cc(S(=O)(=O)Nc3ccc(S(C)(=O)=O)cc3)ccc2Cl)CC1 | -108 | – | – |
| Cc1noc(C)c1CSCC(=O)OCc1nc2ccccc2c(=O)n1CC#N | -8.2 | – | 18.4 µM [rising, single point] |
| CC1CCc2c(C(=O)Nc3ccc(OC(F)(F)F)cc3)csc2C1 (stereo not drawn) | 5.71 | – | 3.66 µM [rising, single point] |
| CCCCN(CC)Cc1ccc(CNC(=S)Nc2c(C)cc(C)cc2C)o1 | -3.29 | – | 3.66 µM [falling, single point] |
| O=C(O)C1CC=CCC1C(=O)NC12CC3CC(CC(C3)C1)C2 (stereo not drawn) | -12.8 | – | 29.1 µM [falling, partial curve, poor fit] |
| N/C(=N\OS(=O)(=O)c1ccc2ccccc2c1)c1ccccn1 | – | 0.116 µM [falling, full curve, poor fit] | – |
| CCN(C(=O)CSc1ncccc1C(=O)Oc1cccc([N+](=O)[O-])c1)c1cccc(C)c1 | -9.22 | – | – |
| COc1ccc(CCNC(=O)c2cc(S(=O)(=O)N3CCCCCC3)ccc2OC)cc1OC | -21.4 | – | 29.1 µM [falling, single point] |
| Cc1cc(=O)[nH]c(SC/C=C/c2ccccc2)n1 | – | 2.91 µM [falling, partial curve, poor fit] | 4.61 µM [falling, partial curve] |
| COc1cc(OC)nc(Oc2ccc(NC(C)=O)cc2)n1 | 10.6 | – | 1.46 µM [rising, partial curve, poor fit] |
| COc1ccc2cc(C(=O)N3CCN(Cc4ccc5c(c4)OCO5)CC3)[nH]c2c1 | -4.53 | – | 29.1 µM [rising, single point] |
| CC(=O)N1CCN(CC(=O)Nc2c(Cl)ccc(C)c2Cl)CC1 | -6.17 | – | – |
| O=C(c1ccc(S(=O)(=O)N2CCCC2)cc1)N1CCN(S(=O)(=O)c2cccc(F)c2)CC1 | 8.33 | – | – |
| COc1ccc(CN2CCC(n3nccc3NC(=O)c3ccc4c(c3)OCO4)CC2)cc1C | -9.73 | – | 6.51 µM [rising, single point] |
| COC(=O)c1oc2ccccc2c1NC(=O)/C=C/C(=O)O | 11.4 | 0.651 µM [falling, single point] | – |
| CCCCC1CCC(C(=O)N(CC(C)C)c2c(N)n(CCCC)c(=O)[nH]c2=O)CC1 (stereo not drawn) | 7.92 | 0.651 µM [falling, single point] | – |

| Compound | cell number change [%] | AC50 [1] | AC50 [2] |
| --- | --- | --- | --- |
| O=C(c1ccccc1Br)N1CCN(c2ncccn2)CC1 | 44 | 29.1 µM [rising, single point] | 6.51 µM [rising, partial curve, poor fit] |
| O=C(CN(C(=O)CCC(=O)Nc1nccs1)c1ccc(F)c(Cl)c1)NCc1ccco1 | 41.9 | 1.64 µM [rising, partial curve] | 20.6 µM [falling, single point] |
| COc1cccc(CN2CCCC(C(=O)Nc3ccc(-c4cscn4)cc3)C2)c1 (stereo not drawn) | 19.4 | – | 1.84 µM [rising, partial curve] |
| C=CCCCCCCCCC(=O)Nc1ncccn1 | -23.5 | – | 36.6 µM [falling, partial curve, poor fit] |
| CCC1(C)Cc2ccccc2C(=S)N1 (stereo not drawn) | – | 2.31 µM [falling, partial curve] | 5.17 µM [falling, single point] |
| Cc1ccc(CC(=O)N2CCN(C(=O)c3ccco3)CC2)cc1 | 18.4 | – | 29.1 µM [rising, single point] |
| CC(C(=O)N(C)CC(=O)Nc1ccccc1C(F)(F)F)N1C(=O)c2ccccc2C1=O (stereo not drawn) | -3.03 | – | 11.6 µM [rising, partial curve] |
| CC(CCN1CCN(c2ccccn2)CC1)c1ccccc1 (stereo not drawn) | 7.94 | – | 0.092 µM [rising, full curve, poor fit] |
| COc1cccc(CN2CCCC(CNC(=O)c3ccc(F)cc3)C2)c1OC (stereo not drawn) | 12.1 | – | – |
| c1cncc(-c2nnc(-c3cccs3)o2)c1 | -12.5 | 0.58 µM [rising, full curve] | – |
| COc1cc(C(c2c(C)[nH][nH]c2=O)c2c(C)[nH][nH]c2=O)cc(Cl)c1O | -19.1 | – | 29.1 µM [falling, single point] |
| COc1nc(C)nc2c1sc1nc3c(cc12)COC(C)(C)C3 | – | 6.51 µM [rising, single point] | 29.1 µM [falling, single point] |
| Cc1cnc(CN(C)C(=O)c2ccc3oc(Cc4ccc(Cl)cc4)nc3c2)[nH]1 | 9.79 | – | 16.4 µM [rising, partial curve] |
| Cc1ccc(N2C(=O)CSC2c2c(F)cccc2Cl)cc1 (stereo not drawn) | -6.52 | – | 0.461 µM [rising, single point] |
| COc1ccc(-c2cc(=O)oc3c(C)c(OC(=O)c4cccs4)ccc23)cc1 | -78.4 | 1.3 µM [falling, full curve] | 1.16 µM [falling, full curve] |
| O=S(=O)(Nc1cccc(-c2cn3cccnc3n2)c1)c1ccccc1 | – | – | 0.0058 µM [rising, full curve] |
| O=C(Nc1ccncc1)c1ccc(F)cc1 | 17.9 | – | – |
| CN(C)C(=O)C1(c2ccccc2)CCN(S(=O)(=O)c2ccccc2)CC1 | -12.4 | – | – |
| O=C(CSc1nnc(-c2cccs2)n1-c1ccccc1)N1CCOCC1 | 1.75 | – | 0.731 µM [falling, single point] |
| CC(=O)N1C(=O)c2cccc3cccc(c23)C(=O)N1C(C)=O | -125 | 23.1 µM [falling, partial curve] | 0.731 µM [falling, full curve] |
